Data from the ROBIN nucleic acid binder screens, doi:10.1002/anie.202211358.

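The test is a small-molecule microarray: each compound is printed twice on a reactive slide, and binding shows as fluorescence of the labelled oligonucleotide after washing. For the PreQ1, TPP and SAM-II riboswitches the laboratory earlier reported (doi:10.1038/s41467-019-09493-3) 1 µM RNA, 2 h, and a rule that included a mean Z-score above 3 (spot signal-to-noise against the whole library), a score well above that on a control array, and duplicate spots agreeing (coefficient of variation under 100). The data file gives only the calls; its cut-offs may differ, and compounds hitting several targets are kept. The calls come from the array alone, and fixing a compound to the slide can hide its binding.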 A compound is marked yes if it was called a hit and no if it was screened but was not. This is an unselected part of the compounds tested. A target missing from an entry has no call listed here. A dash means that no call is listed here.

Oligonucleotides screened, 5′ to 3′:
PreQ1: PreQ1 riboswitch RNA pseudoknot, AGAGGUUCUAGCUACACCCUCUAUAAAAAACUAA. From B. subtilis. About 24,000 compounds screened, about 170 hits.
TPP: TPP riboswitch RNA three-way junction, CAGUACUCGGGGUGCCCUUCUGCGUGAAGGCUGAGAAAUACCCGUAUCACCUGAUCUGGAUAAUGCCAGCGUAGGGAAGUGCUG. About 24,000 compounds screened, about 160 hits.
SAM-II: SAM-II riboswitch RNA pseudoknot, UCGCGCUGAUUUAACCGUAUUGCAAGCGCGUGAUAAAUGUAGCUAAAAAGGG. About 21,000 compounds screened, about 200 hits.

SMILES	PreQ1	TPP	SAM-II
C[C@H](N=C(NC#N)Nc1cccc2ccccc12)c1ccccc1	no	no	no
CCc1csc(CNC(C)Cn2cncn2)n1 (centres unmarked)	no	no	no
CC(CC(F)(F)F)NCc1cnn(-c2cccc(F)c2)c1 (centres unmarked)	no	no	no
CCOC(=O)c1cncn1[C@H](C)c1ccccc1	no	no	no
COCCN(C)Cc1nc(-c2ccc(F)c(F)c2)nn1CCO	no	no	no
CCN(CC)Cc1cc2[nH]c3c4ccc(Cl)cc4ncc3c2cc1OC	no	no	no
O=S(=O)(c1ccccc1)c1nc(-c2ccccc2)oc1NCCN1CCOCC1	no	no	-
Nc1ncnc2nc3ccccc3n12	no	no	no
COc1cccc(SCC(=O)N2CCC(Cc3ccc(CO)cc3)C2)c1 (centres unmarked)	no	no	no
CN1C(=O)C2(c3ccccc31)c1c(oc3ccccc3c1=O)C(=O)N2CCCO (centres unmarked)	no	no	-
CCc1nn(C)c(NC(=O)N[C@@H](CO)Cc2ccc(O)cc2)c1C	no	no	no
Nc1ccc2ncc3c(=O)[nH][nH]c3c2c1	no	no	no
COc1cccc([C@H]2CN(C3CCN(C(=O)C4CCC4)CC3)C[C@@H]2N)c1	no	no	no
CCOC(=O)N1CCC(Nc2c(N3CCCCC3C)c(=O)c2=O)CC1 (centres unmarked)	no	no	-
Cc1ccc(N2C(=O)c3cccnc3C2Nc2ccc(C)c(F)c2)cc1 (centres unmarked)	no	no	-
Nc1nccc(Oc2ccc(NC(=O)c3c[nH]cc(-c4ccc(F)cc4)c3=O)cc2F)c1Cl	no	no	no
Cc1cc(C)n(CCNC(=O)C2CC3(CCNCC3)CN2C)c(=O)n1 (centres unmarked)	no	no	no
COc1ccc2c(CNC3CCCCCCC3)c(C(=O)O)n(C)c2c1	no	no	-
Cc1ccc(Nc2nc(-c3cccnc3)cs2)cc1C	no	no	no
Cc1cc(=O)c(C(=O)N2CCC(C(O)Cc3ccccc3)CC2)c(C)[nH]1 (centres unmarked)	no	no	no
C=CCOc1c(Cl)cc(CNC(C)Cc2cnccn2)cc1Cl (centres unmarked)	no	no	no
c1ccc(NCCSc2nc3ccccc3s2)cc1	no	no	yes
Nc1c(C(=O)c2cccc3ccccc23)ccc2c1C(=O)c1ccccc1C2=O	no	no	no
CCCc1c(C(=O)NCCO)nnn1-c1ccccc1	no	no	-
c1ccc(-c2nc(-c3nccc4ccccc34)oc2-c2ccccc2)cc1	no	no	no
CC(C)CNc1nc2c(c(=O)n(Cc3ccccc3)c(=O)n2C)n1C	no	no	no
N#CC1=C(N)Oc2c(c(=O)oc3ccccc23)C1c1c[nH]c2ccccc12 (centres unmarked)	no	no	no
CCOC(=O)c1sc(=S)n(-c2cc(C)ccc2C)c1N	no	no	no
COc1ccccc1CCC(=O)N1CCC(Cc2ccc(CO)cc2)C1 (centres unmarked)	no	no	no
c1ccc(NCc2nc3ccccc3n2CCOc2ccccc2)cc1	no	no	no
N#Cc1ccc(CN(CCO)Cc2cccs2)cc1	no	no	no
NCCc1cccc(-c2ccc(F)cc2Cl)c1	no	yes	yes
CCOc1ccc(-c2c(-c3ccccc3)ncn2Cc2c(C)noc2C)cc1CO	no	no	no
CNC(=O)c1c(-c2ccc(F)cc2)oc2cc(N(CCO)S(C)(=O)=O)c(C3CC3)cc12	no	no	no
CC(=O)N1CCN(c2ccc(OCc3nn(C)c(C)c3-c3cccc4c(CCCOc5cccc6ccccc56)c(C(=O)O)n(Cc5cccnc5)c34)cc2)CC1	no	no	no
CCOC(=O)c1ccc(Nc2nc(C)c3ncn(-c4ccc(C(=O)OCC)cc4)c3n2)cc1	no	no	no
Cc1ccnc(N2C(=O)c3ccccc3C2Nc2ccc(C)c(C)c2)c1 (centres unmarked)	no	no	no
CCOc1cc(CNCCc2ccccc2)ccc1OC	no	no	no
COc1ccc(CNCc2ccccc2Br)cc1	no	no	no
C=CCN(CC=C)CC(O)Cn1c(C)c(C)c2ccccc21 (centres unmarked)	no	no	no
OC1(CNCc2nc(-c3cnccn3)n[nH]2)CNCCOC1 (centres unmarked)	no	no	no
COc1ccc(CCNc2ncnc3sc4c(c23)CCCC4)cc1	no	no	no
Nc1nnc(-c2cccc(Cl)c2Cl)c(N)n1	no	no	no
CC(C)[C@@H]1CN(Cc2ccc(C#CCO)cc2)C[C@H]1N(C)C	no	no	no
C=CCN1C(=O)C2(C(C(C)=O)=C(C)OC(N)=C2C(=O)OCC)c2ccccc21 (centres unmarked)	no	no	no
COC(=O)c1noc(C)c1CN1C(=O)NC(C)(C2CCNCC2)C1=O (centres unmarked)	no	no	no
COc1cccc([C@@H]2CCN(Cc3ncc[nH]3)C[C@H]2O)c1	no	no	no
COc1ccc(OC)c(S(=O)(=O)N2C[C@H](N(C)C)C[C@H]2CO)c1	no	no	no
Cc1nn(C)c(C)c1CN(CCO)C(=O)CCC1NC(=O)NC1=O (centres unmarked)	no	no	no
Nc1ncnc2[nH]c(SCc3ccc(Cl)cc3Cl)nc12	no	no	-
Clc1ccc(-c2noc(-c3cccnc3NC3CCCC3)n2)cc1	no	no	-
CC(C)c1ccc2oc(-c3ccc(N)cc3)nc2c1	no	no	no
N#CC1=C(N)Oc2[nH]nc(-c3ccncc3)c2C1c1cc2c(cc1Br)OCO2 (centres unmarked)	no	no	no
Cc1cc(N2CCN(S(=O)(=O)c3cccc(F)c3)CC2)nc(NC2CCCCC2)n1	no	no	-
CCc1nc(N2CCC3(CC2)OCCCC3O)ncc1C (centres unmarked)	no	no	no
CCN(CC)Cc1cc(C(=O)N2CC[C@@H](N)[C@H](O)C2)c(-c2ccccc2)o1	no	no	no
COc1nc2c(cc1C(=O)N(CCO)Cc1sccc1C)CCC2	no	no	no
O=C(c1ccccc1)N1CCC(NCCOc2ccccc2F)CC1	no	no	no
CC(C)NC(=O)[C@@H]1C[C@@H](N)CN1C(=O)c1ccccc1-c1ncc[nH]1	no	no	no
CCCn1cnc2cc(NCc3ccc(Br)cc3)ccc21	no	no	no
Cc1cc2c(cc1CN1C[C@@H](CN3CCCCCC3)[C@@H](CO)C1)OCCO2	no	no	no
Cn1c(CCC(=O)NCCCO)nc2cc(S(=O)(=O)N3CCCC3)ccc21	no	no	no
Cc1ccsc1[C@@H]1CCN(C(=O)CCCn2cncn2)C[C@H]1O	no	no	no
O=C(c1ccc(Oc2ccccc2)o1)N1CC[C@H](CO)[C@H](O)C1	no	no	no
Cc1ccc([C@H]2CN(C(=O)c3c(C)c4cccc(C)c4n3C)C[C@@H]2N)o1	no	no	no
COc1ccc(N2C(N)=C(C#N)C(c3cccc(OC(C)C)c3)C3=C2CCS3(=O)=O)cc1 (centres unmarked)	no	no	no
CCN(CC)CC(O)c1c[nH]c2ccccc12 (centres unmarked)	no	no	-
CC1CCC(C(C)C)C(NC(=O)c2ccncc2)C1 (centres unmarked)	no	no	no

Some entries from above, unchanged:

{"smiles": "CCc1nn(C)c(NC(=O)N[C@@H](CO)Cc2ccc(O)cc2)c1C", "PreQ1": "no", "TPP": "no", "SAM-II": "no"}
{"smiles": "Nc1nccc(Oc2ccc(NC(=O)c3c[nH]cc(-c4ccc(F)cc4)c3=O)cc2F)c1Cl", "PreQ1": "no", "TPP": "no", "SAM-II": "no"}
{"smiles": "Cc1ccc(N2C(=O)c3cccnc3C2Nc2ccc(C)c(F)c2)cc1", "stereo": "centres unmarked", "PreQ1": "no", "TPP": "no"}
{"smiles": "Nc1c(C(=O)c2cccc3ccccc23)ccc2c1C(=O)c1ccccc1C2=O", "PreQ1": "no", "TPP": "no", "SAM-II": "no"}
{"smiles": "Cc1ccnc(N2C(=O)c3ccccc3C2Nc2ccc(C)c(C)c2)c1", "stereo": "centres unmarked", "PreQ1": "no", "TPP": "no", "SAM-II": "no"}
{"smiles": "OC1(CNCc2nc(-c3cnccn3)n[nH]2)CNCCOC1", "stereo": "centres unmarked", "PreQ1": "no", "TPP": "no", "SAM-II": "no"}
{"smiles": "c1ccc(-c2nc(-c3nccc4ccccc34)oc2-c2ccccc2)cc1", "PreQ1": "no", "TPP": "no", "SAM-II": "no"}